PubChem BioAssay AID1259425 | University of Nebraska Medical Center, 2018
Purpose: 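Find knockdowns that reproduce the gene expression pattern seen when KSR1 is lost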 (primary screen). Cell system: HCT116 human colon cancer cells. Reagents: siRNA pool against human genes, 50 nM siRNA. Measured: 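After 50 nM siRNA pool, branched-DNA assay measures six marker transcripts per well, minus blank, normalised to the geometric mean of two housekeeping transcripts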. Scale: BNIP3L mRNA: higher = more BNIP3L transcript after knockdown.
This is one part, drawn at random, of about 14,000 reagents tested. The numbers tell different reagents against one gene apart. Further read-outs or replicates are left out here. Not stated in the record: the time to read-out.

BNIP3L mRNA, set 1, by target and reagent
XPA: #1 0.0809
TLCD3B: #1 0.173
SFRP2: #1 0.162
RABEPK: #1 0.17
IL5RA: #1 0.0616
SMARCA5: #1 0.108
NIPSNAP3B: #1 0.0817
ATG7: #1 0.0626
ANGPTL3: #1 0.0878
HOXB2: #1 0.128
GTF2E1: #1 0.0364
TMEM248: #1 0.0855
SND1-IT1: #1 0.247
PPAT: #1 0.08
LPP: #1 0.138
SHANK2: #1 0.234
BAGE2: #1 0.202
VPS25: #1 0.186
MMP21: #1 0.103
HSPE1: #1 0.151
OTX2: #1 0.136
RTF1: #1 0.122
SIX1: #1 0.121
NF2: #1 0.114
REC8: #1 0.148
PAPSS2: #1 0.0705
LRRC47: #1 0.185
PMEL: #1 0.148
MYB: #1 0.189
KLF11: #1 0.0497
PCNT: #1 0.101

In a second layout: results already given.
target | reagent | BNIP3L mRNA, set 1
MMP21 | 1 | 0.103
HSPE1 | 1 | 0.151
OTX2 | 1 | 0.136
RTF1 | 1 | 0.122
SIX1 | 1 | 0.121
NF2 | 1 | 0.114

The listing continues:
BNIP3L mRNA, set 1, by target and reagent
CPXCR1: #1 0.185
SCAMP1: #1 0.189
CEBPA: #1 0.0979
AHNAK: #1 0.165
DNAJA4: #1 0.057
EMP1: #1 0.0882
KL: #1 0.168
RAB11FIP3: #1 0.0913
NXF3: #1 0.113
GUSBP14: #1 0.348; #2 0.188
SRSF4: #1 0.113
RABGAP1L: #1 0.0967
MATK: #1 0.0952
ZNF124: #1 0.0707
GPR161: #1 0.192
ARID4A: #1 0.164
SLC28A3: #1 0.0384
TNFRSF9: #1 0.0826
